Our source for the cell number change and AC50 values is PubChem BioAssay AID2685 (National Center for Advancing Translational Sciences (NCATS), 2010).

This is one part of the list. These are further read-outs of the screen, such as a control signal, another cell line or another target. No call is given for them. Most of these compounds were active or inconclusive in the main read-out, so they are no random draw. The note in brackets gives the kind of curve behind each potency; many fits are weak.

The assay in a line: qHTS Assay for Lipid Storage Modulators in Drosophila S3 Cells.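 On cell number change: cells counted by Cell Tracker Red CMTPX staining in the red channel.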 As to conditions: BODIPY lipid droplet fluorescence, 18-24 h; for cell number change: measured here: cell count max response, cells fed with added oleic acid. The procedure, abridged: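 Laser-scanning cytometry quantifies lipid droplet accumulation (500–530 nm total intensity; droplet/cell object ratio) in oleic acid-fed (400 uM added) Drosophila S3 cells treated with a concentration series. 20 uM Triacsin C defined 100% inhibition.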
(In general: qHTS replaces the single test concentration by a dilution series.)

Setting [1] is: measured here: cell number channel AC50, cells fed with added oleic acid.
Setting [2] is: measured here: lipid fluorescence (Fed channel) AC50, cells fed with added oleic acid.

With `CCN(CC)CCOC(=O)c1ccc(N/C=C(/C#N)c2nc(-c3ccc(OC)cc3)cs2)cc1`, the cell number change is -50.4%. Besides, the AC50 under setting [1] was 29.1 µM [falling, single point].
With `CCN(c1ccccc1)S(=O)(=O)c1ccc(C(=O)NCc2ccccn2)cc1`, the cell number change was -6.79%. Besides, the half-maximal activity concentration (AC50) under setting [2] was 2.91 µM [falling, partial curve].
As for `CC(=O)Nc1ccc(NC(=O)CSc2nccn2Cc2ccccc2)cc1`, the cell number change came out at 3.23%. Under setting [2], the half-maximal activity concentration (AC50) is 0.00411 µM [rising, full curve, poor fit].
As to `CSc1ncc(CN2CCCC(C(=O)c3ccc(C(C)(C)C)cc3)C2)cn1` (stereo unspecified), the cell number change is -2.29%. The AC50 under setting [2] was 0.103 µM [falling, full curve, poor fit].
On to `O=C1CC2(CCN(C(=O)c3ccccc3[N+](=O)[O-])CC2)Oc2ccccc21`, for which the cell number change amounted to 2.77%. Besides, the AC50 under setting [2] was 0.731 µM [falling, single point].
Regarding `c1ccc(Cn2ccnc2-c2ccco2)cc1`, the cell number change was -23.8%. Further, under setting [1], the AC50 was 1.84 µM [rising, partial curve].
With `CCN(C(=O)COC(=O)c1c2c(nc3ccccc13)/C(=C/c1ccccc1)CC(C)C2)C1CCS(=O)(=O)C1` (stereo unspecified), the AC50 is, setting by setting: under setting [1], 0.00461 µM [falling, full curve, poor fit]; under setting [2], 23.1 µM [falling, single point].
As to `O=C(Nc1ccccc1N1CCCC1)c1cccc(-c2cc3ccccc3oc2=O)c1`, the cell number change came out at 3.5%. The AC50 under setting [2] was 0.231 µM [rising, full curve, poor fit].
Take `Cc1c(Cl)cccc1NC(=O)CCCN1C(=O)c2cccnc2C1=O`: the cell number change worked out at 13%. For the same compound, under setting [2], the half-maximal activity concentration (AC50) is 6.51 µM [rising, single point].
For `COc1ccc2sc(N(CCCN(C)C)C(=O)c3ccc(S(=O)(=O)N(C)Cc4ccccc4)cc3)nc2c1`, the cell number change was determined as 32.5%. Moreover, the AC50 under setting [1] was 29.1 µM [rising, single point]. Besides, the AC50 under setting [2] is 29.1 µM [rising, single point].
For `CCOC(Cn1ccc(=O)[nH]c1=O)OCC`, the AC50 under setting [2] is 0.291 µM [rising, full curve, poor fit].
As to `CCOC(=O)N/N=C/c1ccc(F)cc1`, the cell number change is 17%. In addition, the half-maximal activity concentration (AC50) under setting [1] was 7.31 µM [rising, partial curve, poor fit]. Besides, the AC50 under setting [2] was 6.51 µM [rising, partial curve, poor fit].
With `Cc1ccccc1-c1nc(CS(=O)(=O)CC(=O)NC2CCCCC2C)c(C)o1` (stereo unspecified), the cell number change turned out to be 23.2%. Besides, the AC50 under setting [2] is 29.1 µM [rising, single point].
As for `CCCCn1c(N)c(N(CC(C)C)C(=O)Cn2c(=O)oc3ccccc32)c(=O)[nH]c1=O`, the cell number change was found to be 10%.
Same read-out and setting: the result for `CC(C)CNC(=O)c1cc2nc3c(c(C(F)(F)F)n2n1)CCc1ccccc1-3` reads -0.53%.
Turning to `Cc1ccc(NC(=O)CN(C)C(=O)c2cccc(S(=O)(=O)NCc3cccs3)c2)cc1`, the cell number change was -4.05%. For the same compound, the AC50 under setting [2] is 0.116 µM [falling, full curve, poor fit].

The term AC50 denotes the concentration giving half of the maximal activity seen. The low end stands for activity at low concentration, the high end for activity only at high concentration.
